Measurements reported in PubChem BioAssay AID1259327 (Drosophila RNAi Screening Center, 2017)

Purpose: 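Data from controls in screens of zinc and manganese toxicity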
System: Drosophila S2R+ cells
Reagents: long dsRNA against Drosophila genes
Duration: 5 days (water added on day 4, read one day later)
Conditions: water added as vehicle, no metal, one day before read-out
Measured: 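Total ATP measured by luciferase light, scaled to plate mean, duplicates averaged, then z-scored across plates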
Direction: ATP z-score: higher = more total ATP than typical wells; ATP luminescence: higher = more total ATP
Active means: 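a hit is any knock-down whose absolute ATP z-score is greater than 1.5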
Calls: active = hit: ATP up or down; inactive = no clear ATP change
Shown is an unselected part of about 3,100 reagents tested. In the full data, 378 (12%) were called active. 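Hits include both directions; z-score sign shows ATP rise or fall; raw luminescence values are not plate-normalised.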 Not given: the amount of reagent.

| gene knocked down | dsRNA | ATP z-score, duplicate mean | ATP luminescence, replicate 1 (RLU) | ATP luminescence, replicate 2 (RLU) | Outcome |
| --- | --- | --- | --- | --- | --- |
| CG15279 | DRSC01935 | 0.447 | 4.27e5 | 5.99e5 | inactive |
| CG15279 | DRSC27347 | 0.447 | 1.13e6 | 1.13e6 | inactive |
| CG14511 | DRSC14863 | -1.63 | 6.04e5 | 7.73e5 | active |
| CG14511 | DRSC26574 | -0.851 | 8.81e5 | 9.82e5 | inactive |
| CG7497 | DRSC28188 | 1.56 | 9.86e5 | 1.18e6 | active |
| CG7497 | DRSC37068 | 1.85 | 7.69e5 | 7.03e5 | active |
| JTBR | DRSC08667 | -0.531 | 5.44e5 | 5.99e5 | inactive |
| CG11162 | DRSC22538 | 0.178 | 5.52e5 | 6.38e5 | inactive |
| CG11162 | DRSC39680 | -1.04 | 4.14e5 | 3.73e5 | inactive |
| nac (neuronally altered carbohydrate) | DRSC16520 | -0.759 | 2.34e5 | 7.60e5 | inactive |
| Egfr (Epidermal growth factor receptor) | DRSC03871 | 0.35 | 7.18e5 | 8.47e5 | inactive |
| Egfr (Epidermal growth factor receptor) | DRSC04613 | 1.44 | 8.90e5 | 8.79e5 | inactive |
| Egfr (Epidermal growth factor receptor) | DRSC36621 | -1.51 | 4.60e5 | 4.44e5 | active |
| Egfr (Epidermal growth factor receptor) | DRSC36622 | 1.61 | 6.71e5 | 7.61e5 | active |
| foi (fear-of-intimacy) | DRSC10719 | -0.397 | 8.61e5 | 8.27e5 | inactive |
| foi (fear-of-intimacy) | DRSC29596 | -0.41 | 8.19e5 | 7.32e5 | inactive |
| CG7882 | DRSC04899 | 0.0892 | 6.24e5 | 6.31e5 | inactive |
| CG32547 | DRSC19263 | -0.784 | 5.22e5 | 5.75e5 | inactive |
| CG32547 | DRSC19474 | 0.0774 | 6.45e5 | 8.36e5 | inactive |
| Gr39a (Gustatory receptor 39a) | DRSC01841 | -0.94 | 6.17e5 | 6.66e5 | inactive |
| Gr39a (Gustatory receptor 39a) | DRSC01842 | -0.346 | 6.65e5 | 7.47e5 | inactive |
| Gr39a (Gustatory receptor 39a) | DRSC27181 | -1.11 | 8.50e5 | 1.02e6 | inactive |
| rho-4 (rhomboid-4) | DRSC19761 | -0.506 | 6.58e5 | 6.49e5 | inactive |
| rho-4 (rhomboid-4) | DRSC19762 | 2.38 | 8.13e5 | 7.27e5 | active |
| clumsy | DRSC03111 | 0.705 | 8.32e5 | 7.71e5 | inactive |
| Grl43a (Gustatory receptor-like 43a) | DRSC06383 | -0.067 | 4.94e5 | 7.34e5 | inactive |
| CG31793 | DRSC02605 | -0.0952 | 6.77e5 | 7.54e5 | inactive |
| CG31793 | DRSC24308 | 0.0781 | 1.03e6 | 6.56e5 | inactive |
| CG32987 | DRSC22373 | -0.135 | 8.85e5 | 7.81e5 | inactive |
| CG32987 | DRSC28687 | 0.892 | 9.86e5 | 8.79e5 | inactive |
| CG31523 | DRSC12009 | 1.37 | 6.98e5 | 1.08e6 | inactive |
| CG31523 | DRSC27253 | 1.09 | 9.70e5 | 1.11e6 | inactive |
| CG8008 | DRSC07053 | -0.0286 | 6.95e5 | 7.62e5 | inactive |
| CG8008 | DRSC39472 | -0.683 | 4.48e5 | 3.69e5 | inactive |
| Sugb (Sugar baby) | DRSC10815 | 0.208 | 7.40e5 | 7.67e5 | inactive |
| Sugb (Sugar baby) | DRSC39654 | 0.614 | 5.14e5 | 5.00e5 | inactive |
| CG10165 | DRSC02017 | 0.688 | 4.59e5 | 6.00e5 | inactive |
| Vha16-4 (Vacuolar H[+] ATPase 16kD subunit 4) | DRSC07321 | -0.521 | 6.03e5 | 5.41e5 | inactive |
| Mrp5 (Multidrug resistance protein 5) | DRSC15597 | -0.246 | 2.82e5 | 7.51e5 | inactive |
| Mrp5 (Multidrug resistance protein 5) | DRSC15598 | 0.768 | 7.87e5 | 8.67e5 | inactive |
| Mrp5 (Multidrug resistance protein 5) | DRSC25669 | -1.64 | 6.76e5 | 5.80e5 | active |
| Or67a (Odorant receptor 67a) | DRSC11240 | 0.927 | 1.14e6 | 9.00e5 | inactive |
| SiaT (Sialyltransferase) | DRSC04494 | 0.218 | 7.97e5 | 7.02e5 | inactive |
| SiaT (Sialyltransferase) | DRSC39665 | 0.595 | 4.68e5 | 5.45e5 | inactive |
| mAChR-B (muscarinic Acetylcholine Receptor, B-type) | DRSC16345 | -2.27 | 2.13e5 | 4.75e5 | active |
| mAChR-B (muscarinic Acetylcholine Receptor, B-type) | DRSC26738 | 0.41 | 1.07e6 | 9.61e5 | inactive |

In a second layout: entries from further up.
{"gene knocked down":"CG31523","dsRNA":"DRSC27253","ATP z-score, duplicate mean":1.09,"ATP luminescence, replicate 1 (RLU)":9.70e5,"ATP luminescence, replicate 2 (RLU)":1.11e6,"Outcome":"inactive"}
{"gene knocked down":"CG8008","dsRNA":"DRSC07053","ATP z-score, duplicate mean":-0.0286,"ATP luminescence, replicate 1 (RLU)":6.95e5,"ATP luminescence, replicate 2 (RLU)":7.62e5,"Outcome":"inactive"}
{"gene knocked down":"CG8008","dsRNA":"DRSC39472","ATP z-score, duplicate mean":-0.683,"ATP luminescence, replicate 1 (RLU)":4.48e5,"ATP luminescence, replicate 2 (RLU)":3.69e5,"Outcome":"inactive"}
{"gene knocked down":"Sugb (Sugar baby)","dsRNA":"DRSC10815","ATP z-score, duplicate mean":0.208,"ATP luminescence, replicate 1 (RLU)":7.40e5,"ATP luminescence, replicate 2 (RLU)":7.67e5,"Outcome":"inactive"}
{"gene knocked down":"Sugb (Sugar baby)","dsRNA":"DRSC39654","ATP z-score, duplicate mean":0.614,"ATP luminescence, replicate 1 (RLU)":5.14e5,"ATP luminescence, replicate 2 (RLU)":5.00e5,"Outcome":"inactive"}
{"gene knocked down":"CG10165","dsRNA":"DRSC02017","ATP z-score, duplicate mean":0.688,"ATP luminescence, replicate 1 (RLU)":4.59e5,"ATP luminescence, replicate 2 (RLU)":6.00e5,"Outcome":"inactive"}
